Experimental data published in US20040106173A1, “Bot1: target for antifungal agents” (The University of Miami, priority 2001, published 2004).
Results are given in words; binding and its absence hold for the method and conditions named. Some entries that bind do so weakly or less than the wild type. Sequences can lack the tags named with a protein.

Protein sequences, listed by entry. Tags and fused reporters are not part of them. Lines headed by an entry give the natural chain unless they say otherwise; changes in a name come on top.
UniProt P04386: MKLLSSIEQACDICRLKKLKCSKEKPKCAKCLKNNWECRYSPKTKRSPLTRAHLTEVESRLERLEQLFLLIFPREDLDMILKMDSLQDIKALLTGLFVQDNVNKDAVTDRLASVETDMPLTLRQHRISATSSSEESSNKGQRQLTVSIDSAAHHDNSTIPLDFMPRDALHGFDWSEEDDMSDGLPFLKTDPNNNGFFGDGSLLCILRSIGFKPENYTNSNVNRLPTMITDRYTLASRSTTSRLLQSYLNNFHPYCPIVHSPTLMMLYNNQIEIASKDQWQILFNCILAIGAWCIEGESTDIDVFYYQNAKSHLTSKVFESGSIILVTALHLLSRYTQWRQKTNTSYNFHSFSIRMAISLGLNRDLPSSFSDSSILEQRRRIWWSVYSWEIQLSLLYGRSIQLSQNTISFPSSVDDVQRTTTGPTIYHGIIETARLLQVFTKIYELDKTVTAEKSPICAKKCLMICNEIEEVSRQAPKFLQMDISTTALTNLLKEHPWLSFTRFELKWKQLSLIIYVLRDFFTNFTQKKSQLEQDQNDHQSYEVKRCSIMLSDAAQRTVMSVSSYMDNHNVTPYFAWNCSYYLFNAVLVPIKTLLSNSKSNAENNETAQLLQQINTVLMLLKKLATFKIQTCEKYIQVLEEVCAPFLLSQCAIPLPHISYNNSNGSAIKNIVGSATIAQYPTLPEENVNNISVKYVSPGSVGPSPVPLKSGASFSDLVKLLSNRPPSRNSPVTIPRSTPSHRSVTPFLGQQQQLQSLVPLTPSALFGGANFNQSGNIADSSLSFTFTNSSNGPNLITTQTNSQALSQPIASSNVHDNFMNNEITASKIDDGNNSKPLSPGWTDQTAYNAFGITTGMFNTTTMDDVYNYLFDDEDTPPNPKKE

Key:
[1] = biological target: T1, GAL4 activation domain fused to SNF4p (pSE1111, pACT-SNF4) (UniProt P12904); assay: yeast two-hybrid, positive control
T1 sequence (looked up): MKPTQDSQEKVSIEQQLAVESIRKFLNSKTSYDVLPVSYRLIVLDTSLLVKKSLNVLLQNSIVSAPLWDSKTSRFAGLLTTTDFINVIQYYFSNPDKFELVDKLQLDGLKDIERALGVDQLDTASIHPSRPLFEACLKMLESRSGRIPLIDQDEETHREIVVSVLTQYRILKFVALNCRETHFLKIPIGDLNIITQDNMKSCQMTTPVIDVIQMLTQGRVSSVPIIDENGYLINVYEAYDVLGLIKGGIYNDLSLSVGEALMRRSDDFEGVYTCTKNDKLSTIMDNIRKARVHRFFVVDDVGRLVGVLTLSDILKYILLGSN

[2] = biological target: T1, GAL4 activation domain fused to SNF4p (pSE1111, pACT-SNF4); assay: LACZ-GAL4 reporter in strain BY3161, control of the three-hybrid test

binding [1]: binds | binding [2]: binds
Substance: GAL4 binding domain fused to SNF1p (pSE1112, pAS1-SNF1) (from UniProt P04386 1-147; P06782 1-633)
